The target in the test is T1, pTAC10-HA (Arabidopsis thaliana) (UniProt F4JF21).
T1 sequence: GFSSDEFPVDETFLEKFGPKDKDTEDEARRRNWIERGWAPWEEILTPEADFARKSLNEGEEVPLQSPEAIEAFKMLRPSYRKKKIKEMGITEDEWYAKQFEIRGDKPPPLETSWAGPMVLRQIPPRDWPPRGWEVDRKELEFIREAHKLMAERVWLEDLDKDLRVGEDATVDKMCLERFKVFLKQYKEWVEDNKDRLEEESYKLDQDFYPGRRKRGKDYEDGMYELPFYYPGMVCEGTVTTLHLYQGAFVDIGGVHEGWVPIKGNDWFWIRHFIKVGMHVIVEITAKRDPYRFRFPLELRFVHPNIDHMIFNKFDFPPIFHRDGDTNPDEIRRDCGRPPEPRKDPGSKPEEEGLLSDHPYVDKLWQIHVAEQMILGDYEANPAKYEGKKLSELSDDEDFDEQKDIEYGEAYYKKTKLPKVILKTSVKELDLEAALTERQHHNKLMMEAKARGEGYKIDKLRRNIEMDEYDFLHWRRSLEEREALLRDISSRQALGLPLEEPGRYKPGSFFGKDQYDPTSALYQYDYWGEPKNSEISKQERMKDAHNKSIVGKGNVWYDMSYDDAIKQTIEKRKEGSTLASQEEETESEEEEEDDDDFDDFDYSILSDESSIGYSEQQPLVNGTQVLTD
Kind of test: co-IP; protoplasts from 35S::FSD3-GFP or 35S::FSD3S-GFP plants transformed with 35S::pTAC10-HA; HA antibody precipitates, GFP antibody detects; as in Chang et al. (2017) with slight modification.

No constants are given. Whether binding was seen depends on the method and setting. In cells and extracts the contact can be indirect. Binding can be weak; no strength is given. Where a sequence is shown, tags or fusion partners need not be part of it.

On to FSD3S-GFP (Arabidopsis thaliana), for which the binding result was “binds”.

Source of the values: PMC6882211.
